Drawing on article PMC11140966, this text covers binding for two substances.

Amino acid sequences for entries named in this document (tags omitted).
UniProt P56959: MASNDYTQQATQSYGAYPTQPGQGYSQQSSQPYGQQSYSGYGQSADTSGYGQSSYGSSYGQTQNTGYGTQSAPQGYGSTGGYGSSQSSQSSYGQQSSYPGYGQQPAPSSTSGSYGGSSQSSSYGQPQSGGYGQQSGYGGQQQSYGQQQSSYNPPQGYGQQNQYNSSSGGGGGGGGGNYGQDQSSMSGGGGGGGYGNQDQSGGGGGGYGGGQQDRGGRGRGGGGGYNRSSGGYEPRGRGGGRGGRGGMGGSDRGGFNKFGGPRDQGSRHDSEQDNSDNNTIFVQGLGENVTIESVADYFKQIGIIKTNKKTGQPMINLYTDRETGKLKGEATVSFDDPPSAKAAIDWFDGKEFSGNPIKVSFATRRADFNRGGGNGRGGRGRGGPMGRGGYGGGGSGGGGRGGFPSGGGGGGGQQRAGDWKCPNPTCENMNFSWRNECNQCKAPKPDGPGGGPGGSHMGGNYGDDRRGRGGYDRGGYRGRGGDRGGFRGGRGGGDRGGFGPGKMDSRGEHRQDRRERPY
UniProt P23804: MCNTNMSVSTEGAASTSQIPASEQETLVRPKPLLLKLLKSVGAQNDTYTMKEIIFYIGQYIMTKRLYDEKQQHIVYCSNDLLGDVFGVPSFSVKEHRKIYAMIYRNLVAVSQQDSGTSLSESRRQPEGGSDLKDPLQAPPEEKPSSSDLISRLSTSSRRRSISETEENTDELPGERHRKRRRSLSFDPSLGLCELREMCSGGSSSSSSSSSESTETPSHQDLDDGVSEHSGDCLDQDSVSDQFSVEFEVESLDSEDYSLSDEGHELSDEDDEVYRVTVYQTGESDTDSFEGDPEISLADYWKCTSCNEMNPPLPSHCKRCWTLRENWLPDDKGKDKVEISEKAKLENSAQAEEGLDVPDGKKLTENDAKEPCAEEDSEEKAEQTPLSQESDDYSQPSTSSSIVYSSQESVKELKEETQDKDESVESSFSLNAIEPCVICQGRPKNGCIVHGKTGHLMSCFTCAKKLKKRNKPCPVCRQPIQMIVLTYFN
UniProt P48754: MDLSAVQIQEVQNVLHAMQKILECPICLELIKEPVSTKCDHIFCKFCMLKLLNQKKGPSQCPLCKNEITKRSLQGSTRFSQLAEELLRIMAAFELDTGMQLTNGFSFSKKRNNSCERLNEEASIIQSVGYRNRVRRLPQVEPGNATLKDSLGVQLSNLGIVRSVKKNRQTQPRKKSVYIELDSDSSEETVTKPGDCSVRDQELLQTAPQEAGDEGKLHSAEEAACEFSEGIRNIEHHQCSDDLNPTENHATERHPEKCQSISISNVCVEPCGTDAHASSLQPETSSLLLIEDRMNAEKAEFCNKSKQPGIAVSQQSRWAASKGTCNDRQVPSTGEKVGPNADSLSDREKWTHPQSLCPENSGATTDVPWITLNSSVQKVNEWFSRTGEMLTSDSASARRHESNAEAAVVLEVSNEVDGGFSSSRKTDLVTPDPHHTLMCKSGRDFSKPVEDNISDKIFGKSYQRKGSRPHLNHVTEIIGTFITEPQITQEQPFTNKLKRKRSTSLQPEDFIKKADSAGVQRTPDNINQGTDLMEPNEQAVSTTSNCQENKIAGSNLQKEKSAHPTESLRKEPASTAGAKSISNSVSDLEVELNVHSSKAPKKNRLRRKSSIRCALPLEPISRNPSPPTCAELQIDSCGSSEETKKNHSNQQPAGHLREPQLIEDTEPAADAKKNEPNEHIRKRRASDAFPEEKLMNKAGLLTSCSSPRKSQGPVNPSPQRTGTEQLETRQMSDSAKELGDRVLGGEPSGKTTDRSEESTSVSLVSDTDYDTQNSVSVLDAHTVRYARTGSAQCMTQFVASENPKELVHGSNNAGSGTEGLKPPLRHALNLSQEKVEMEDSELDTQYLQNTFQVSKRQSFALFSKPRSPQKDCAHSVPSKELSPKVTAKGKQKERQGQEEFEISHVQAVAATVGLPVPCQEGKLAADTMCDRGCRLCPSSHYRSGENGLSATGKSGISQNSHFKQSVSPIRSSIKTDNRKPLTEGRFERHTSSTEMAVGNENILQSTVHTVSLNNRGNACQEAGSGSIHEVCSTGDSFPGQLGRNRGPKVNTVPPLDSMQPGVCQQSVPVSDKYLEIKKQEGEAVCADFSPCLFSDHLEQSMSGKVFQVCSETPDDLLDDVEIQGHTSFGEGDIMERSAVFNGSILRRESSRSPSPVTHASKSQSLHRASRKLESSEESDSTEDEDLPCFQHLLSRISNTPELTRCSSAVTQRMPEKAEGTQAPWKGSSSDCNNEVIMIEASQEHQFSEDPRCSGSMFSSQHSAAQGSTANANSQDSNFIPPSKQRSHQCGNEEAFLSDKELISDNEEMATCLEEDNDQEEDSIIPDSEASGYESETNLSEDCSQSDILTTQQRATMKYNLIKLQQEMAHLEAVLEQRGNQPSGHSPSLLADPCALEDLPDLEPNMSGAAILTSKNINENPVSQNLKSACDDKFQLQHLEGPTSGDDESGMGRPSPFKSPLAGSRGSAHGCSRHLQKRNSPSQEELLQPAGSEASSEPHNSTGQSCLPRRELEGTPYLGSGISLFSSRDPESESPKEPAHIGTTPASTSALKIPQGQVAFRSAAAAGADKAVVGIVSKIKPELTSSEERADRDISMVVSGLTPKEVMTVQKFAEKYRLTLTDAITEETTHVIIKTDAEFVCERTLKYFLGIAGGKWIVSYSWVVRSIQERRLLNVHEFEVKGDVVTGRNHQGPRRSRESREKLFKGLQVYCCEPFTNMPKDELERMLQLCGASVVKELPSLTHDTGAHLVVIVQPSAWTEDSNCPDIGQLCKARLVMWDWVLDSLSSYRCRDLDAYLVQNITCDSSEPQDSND

Results are given in words; binding and its absence hold for the method and conditions named. In cells and extracts the contact can be indirect. Some results given as binding are weak or reduced against the parent protein; the word gives no strength.

The experiment deals with FUS (fused in sarcoma/translocated in liposarcoma), endogenous in embryonic mouse ovary (mouse (endogenous in embryonic mouse ovary)) (UniProt P56959). Nature of the experiment: co-IP; endogenous proteins in embryonic mouse ovary lysates; antibody on Protein A/G magnetic beads, 1 h at room temperature; immunoblotting; IgG as negative control; also lysates of cultured ovaries transfected with control or AD-Hfm1i (FUS with FBXW11 increased, FUS with MDM2 not changed significantly). (In western blotting, separated proteins are transferred to a membrane and probed.)

Consider “MDM2, endogenous in embryonic mouse ovary (from UniProt P23804 1-489)”, for which the binding entry is “binds”.

Take “Breast cancer susceptibility gene 1 (BRCA1), endogenous in embryonic mouse ovary (from UniProt P48754 1-1812)”: the binding result is given as “binds”.
